4 molecules from article PMC4414162 can be followed below.

Sequences of proteins named here, by UniProt entry; tags and fusion partners are left off.
UniProt P53667: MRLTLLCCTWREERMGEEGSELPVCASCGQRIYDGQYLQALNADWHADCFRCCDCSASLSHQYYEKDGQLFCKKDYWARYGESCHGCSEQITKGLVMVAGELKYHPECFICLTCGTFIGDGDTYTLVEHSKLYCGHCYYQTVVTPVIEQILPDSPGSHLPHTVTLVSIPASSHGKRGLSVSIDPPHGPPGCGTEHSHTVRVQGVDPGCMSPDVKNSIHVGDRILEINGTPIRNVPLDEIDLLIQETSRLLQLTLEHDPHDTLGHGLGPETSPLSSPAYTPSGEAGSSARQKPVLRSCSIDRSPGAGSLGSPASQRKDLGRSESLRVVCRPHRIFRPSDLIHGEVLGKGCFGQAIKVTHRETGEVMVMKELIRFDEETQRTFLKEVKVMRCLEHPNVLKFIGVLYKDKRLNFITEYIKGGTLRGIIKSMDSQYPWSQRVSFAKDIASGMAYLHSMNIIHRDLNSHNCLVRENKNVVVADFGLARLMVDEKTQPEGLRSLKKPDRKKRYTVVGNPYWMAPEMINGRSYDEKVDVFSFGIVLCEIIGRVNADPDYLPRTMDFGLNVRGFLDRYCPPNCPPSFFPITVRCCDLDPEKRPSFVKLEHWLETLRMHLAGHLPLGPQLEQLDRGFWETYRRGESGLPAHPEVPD
UniProt Q9NQU5: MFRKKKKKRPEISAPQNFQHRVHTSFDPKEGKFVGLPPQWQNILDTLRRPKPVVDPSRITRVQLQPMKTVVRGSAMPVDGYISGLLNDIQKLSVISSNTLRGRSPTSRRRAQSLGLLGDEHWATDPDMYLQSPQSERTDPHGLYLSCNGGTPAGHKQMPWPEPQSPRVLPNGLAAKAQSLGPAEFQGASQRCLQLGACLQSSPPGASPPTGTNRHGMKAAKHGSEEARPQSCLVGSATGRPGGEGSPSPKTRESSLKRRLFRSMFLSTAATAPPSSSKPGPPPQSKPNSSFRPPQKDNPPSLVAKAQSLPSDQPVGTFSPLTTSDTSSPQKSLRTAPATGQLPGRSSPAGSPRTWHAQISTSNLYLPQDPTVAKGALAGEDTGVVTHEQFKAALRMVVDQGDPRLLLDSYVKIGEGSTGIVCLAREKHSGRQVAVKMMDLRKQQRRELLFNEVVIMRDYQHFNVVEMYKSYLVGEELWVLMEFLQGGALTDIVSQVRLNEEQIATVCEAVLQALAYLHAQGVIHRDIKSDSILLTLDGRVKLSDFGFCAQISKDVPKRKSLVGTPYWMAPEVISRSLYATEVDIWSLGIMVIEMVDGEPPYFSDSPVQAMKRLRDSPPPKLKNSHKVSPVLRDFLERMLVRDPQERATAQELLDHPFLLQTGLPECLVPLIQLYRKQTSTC
UniProt P46940: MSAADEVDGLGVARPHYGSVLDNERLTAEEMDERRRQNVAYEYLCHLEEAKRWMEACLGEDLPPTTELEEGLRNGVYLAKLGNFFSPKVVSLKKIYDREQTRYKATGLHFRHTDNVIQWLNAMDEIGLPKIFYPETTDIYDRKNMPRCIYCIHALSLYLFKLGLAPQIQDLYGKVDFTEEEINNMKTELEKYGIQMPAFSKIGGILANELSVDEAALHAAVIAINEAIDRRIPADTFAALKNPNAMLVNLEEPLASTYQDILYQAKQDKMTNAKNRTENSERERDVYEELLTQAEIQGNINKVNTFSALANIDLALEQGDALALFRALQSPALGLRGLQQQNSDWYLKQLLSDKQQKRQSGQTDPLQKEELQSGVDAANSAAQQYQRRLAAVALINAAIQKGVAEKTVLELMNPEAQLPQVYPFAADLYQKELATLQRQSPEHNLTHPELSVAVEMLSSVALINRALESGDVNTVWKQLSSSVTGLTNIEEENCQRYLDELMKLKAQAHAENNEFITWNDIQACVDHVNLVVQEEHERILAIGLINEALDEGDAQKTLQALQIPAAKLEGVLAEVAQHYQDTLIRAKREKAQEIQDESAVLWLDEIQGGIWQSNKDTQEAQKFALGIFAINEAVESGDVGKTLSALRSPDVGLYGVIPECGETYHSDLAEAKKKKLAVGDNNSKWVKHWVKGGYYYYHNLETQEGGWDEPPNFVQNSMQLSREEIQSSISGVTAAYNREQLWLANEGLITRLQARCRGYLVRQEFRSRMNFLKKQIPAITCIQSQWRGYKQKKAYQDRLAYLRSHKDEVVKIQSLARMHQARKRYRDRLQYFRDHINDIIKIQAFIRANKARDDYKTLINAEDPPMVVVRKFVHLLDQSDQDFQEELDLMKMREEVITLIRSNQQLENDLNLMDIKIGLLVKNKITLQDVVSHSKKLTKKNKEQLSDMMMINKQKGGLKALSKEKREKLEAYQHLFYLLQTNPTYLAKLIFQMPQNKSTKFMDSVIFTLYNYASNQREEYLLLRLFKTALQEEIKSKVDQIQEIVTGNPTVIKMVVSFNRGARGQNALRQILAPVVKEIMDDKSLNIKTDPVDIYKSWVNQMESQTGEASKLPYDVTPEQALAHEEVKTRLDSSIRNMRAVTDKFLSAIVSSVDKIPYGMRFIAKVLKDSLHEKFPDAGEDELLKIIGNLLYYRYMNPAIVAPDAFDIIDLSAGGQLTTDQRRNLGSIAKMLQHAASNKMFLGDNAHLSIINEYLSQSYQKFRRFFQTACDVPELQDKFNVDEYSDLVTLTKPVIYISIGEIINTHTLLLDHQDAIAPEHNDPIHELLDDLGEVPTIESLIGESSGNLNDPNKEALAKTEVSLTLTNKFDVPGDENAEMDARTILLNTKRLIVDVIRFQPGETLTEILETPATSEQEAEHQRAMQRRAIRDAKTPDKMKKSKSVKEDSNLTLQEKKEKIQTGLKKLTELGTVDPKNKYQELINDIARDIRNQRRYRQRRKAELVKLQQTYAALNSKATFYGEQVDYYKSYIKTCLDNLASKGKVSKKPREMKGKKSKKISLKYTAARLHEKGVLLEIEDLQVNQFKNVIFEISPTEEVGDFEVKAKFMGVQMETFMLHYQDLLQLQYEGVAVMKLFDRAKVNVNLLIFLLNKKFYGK

Assay [1] has as its target LIM kinase 1 (LIMK1) (human (endogenous in PC-3 and DU145)) (UniProt P53667). The assay is described as follows: co-IP; co-IP in prostate cancer cells, told only in the discussion, no figure; cell line and bait not stated.
In assay [2] the target is p21-activated kinase 6 (PAK6) (human (endogenous in PC-3 and DU145)) (UniProt Q9NQU5). The assay is described as follows: co-IP; endogenous proteins in PC-3 (and DU145) cell lysates; lysis buffer 1% Triton X-100, 150 mM NaCl, 20 mM Tris-Cl pH 7.4, 1 mM EDTA, 1 mM EGTA; IP with 4 ug PAK6 or LIMK1 antibody and protein G plus/protein A-agarose, 16 h at 4°C; Western blot with anti-LIMK1 or anti-PAK6; control IgG.

Assay [3] deals with LIM kinase 1 (LIMK1) (human (endogenous in PC-3 and DU145)) (UniProt P53667). Described as above.
Assay [4] addresses LIM kinase 1 (LIMK1) (human (endogenous in PC-3 and DU145)), P53667. As to the kind of experiment: co-IP; co-IP in prostate cancer cells, told only in the discussion, no figure; cell line and bait not stated. The following applies: remark: other sources report otherwise.

No constants are given. Whether binding was seen depends on the method and setting. In cells and extracts the contact can be indirect. Some binding calls cover weakened binding; strength is not graded here.

With IQGAP1 (from UniProt P46940 1-1657), the binding entry in assay [1] is recorded as “no binding”.

Regarding “LIM kinase 1 (LIMK1) (from UniProt P53667 1-647)”, in assay [2], the binding entry was “binds”.

In the case of “p21-activated kinase 6 (PAK6) (from UniProt Q9NQU5 1-681)”, the binding entry in assay [3] is “binds”.

B1: beta-catenin, P35222 1-781 (protein)
chain: MATQADLMELDMAMEPDRKAAVSHWQQQSYLDSGIHSGATTTAPSLSGKGNPEEEDVDTSQVLYEWEQGFSQSFTQEQVADIDGQYAMTRAQRVRAAMFPETLDEGMQIPSTQFDAAHPTNVQRLAEPSQMLKHAVVNLINYQDDAELATRAIPELTKLLNDEDQVVVNKAAVMVHQLSKKEASRHAIMRSPQMVSAIVRTMQNTNDVETARCTAGTLHNLSHHREGLLAIFKSGGIPALVKMLGSPVDSVLFYAITTLHNLLLHQEGAKMAVRLAGGLQKMVALLNKTNVKFLAITTDCLQILAYGNQESKLIILASGGPQALVNIMRTYTYEKLLWTTSRVLKVLSVCSSNKPAIVEAGGMQALGLHLTDPSQRLVQNCLWTLRNLSDAATKQEGMEGLLGTLVQLLGSDDINVVTCAAGILSNLTCNNYKNKMMVCQVGGIEALVRTVLRAGDREDITEPAICALRHLTSRHQEAEMAQNAVRLHYGLPVVVKLLHPPSHWPLIKATVGLIRNLALCPANHAPLREQGAIPRLVQLLVRAHQDTQRRTSMGGTQQQFVEGVRMEEIVEGCTGALHILARDVHNRIVIRGLNTIPLFVQLLYSPIENIQRVAAGVLCELAQDKEAAEAIEAEGATAPLTELLHSRNEGVATYAAAVLFRMSEDKPQDYKKRLSVELTSSLFRTEPMAWNETADLGLDIGAQGEPLGYRQDDPSYRSFHSGGYGQDALGMDPMMEHEMGGHHPGADYPVDGLPDLGHAQDLMDGLPPGDSNQLAWFDTDL
As to B1, the binding result in assay [4] was “no binding”.
